No constants are given. Whether binding was seen depends on the method and setting. In cells and extracts the contact can be indirect. Some entries that bind do so weakly or less than the wild type.

Chains of the proteins cited; added tags and fusions are not shown.
UniProt Q9NQV7: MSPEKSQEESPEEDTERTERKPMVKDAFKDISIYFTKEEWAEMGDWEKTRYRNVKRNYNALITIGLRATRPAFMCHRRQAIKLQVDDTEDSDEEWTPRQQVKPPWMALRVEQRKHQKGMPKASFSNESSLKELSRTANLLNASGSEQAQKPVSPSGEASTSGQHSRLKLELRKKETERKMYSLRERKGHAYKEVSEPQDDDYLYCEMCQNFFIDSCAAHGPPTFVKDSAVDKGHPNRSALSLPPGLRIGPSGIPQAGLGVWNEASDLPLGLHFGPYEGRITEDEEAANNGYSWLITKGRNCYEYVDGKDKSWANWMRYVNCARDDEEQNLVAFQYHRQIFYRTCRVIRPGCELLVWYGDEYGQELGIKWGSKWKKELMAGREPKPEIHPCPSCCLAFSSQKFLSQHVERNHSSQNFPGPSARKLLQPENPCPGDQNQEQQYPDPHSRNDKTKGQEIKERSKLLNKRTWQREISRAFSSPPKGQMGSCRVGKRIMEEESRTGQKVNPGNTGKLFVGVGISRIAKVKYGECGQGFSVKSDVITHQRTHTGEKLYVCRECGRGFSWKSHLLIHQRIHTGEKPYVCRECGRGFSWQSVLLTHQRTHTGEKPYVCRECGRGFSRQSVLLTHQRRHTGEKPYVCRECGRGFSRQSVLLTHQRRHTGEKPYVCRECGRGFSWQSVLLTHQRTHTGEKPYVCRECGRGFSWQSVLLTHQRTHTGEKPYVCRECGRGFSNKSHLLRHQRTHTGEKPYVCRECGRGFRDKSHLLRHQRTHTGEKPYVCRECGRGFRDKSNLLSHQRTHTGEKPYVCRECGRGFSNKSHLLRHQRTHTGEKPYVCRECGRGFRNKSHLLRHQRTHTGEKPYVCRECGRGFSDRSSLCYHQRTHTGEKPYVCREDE

The target in this test is full-length human PRDM9 (B allele), C-terminally tagged with HA or V5 (human) (UniProt Q9NQV7). The experiment in a line: co-IP.

Turning to “full-length human PRDM9 (B allele), C-terminally tagged with HA or V5 (from UniProt Q9NQV7 1-894)”, the binding entry is “binds”.
